Measured values: publication PMC7119369
No constants are given. Whether binding was seen depends on the method and setting. In cells and extracts the contact can be indirect. Some binding calls cover weakened binding; strength is not graded here.

Sequences of proteins named here, by UniProt entry; tags and fusion partners are left off. Residues count along the entry.
UniProt P31749: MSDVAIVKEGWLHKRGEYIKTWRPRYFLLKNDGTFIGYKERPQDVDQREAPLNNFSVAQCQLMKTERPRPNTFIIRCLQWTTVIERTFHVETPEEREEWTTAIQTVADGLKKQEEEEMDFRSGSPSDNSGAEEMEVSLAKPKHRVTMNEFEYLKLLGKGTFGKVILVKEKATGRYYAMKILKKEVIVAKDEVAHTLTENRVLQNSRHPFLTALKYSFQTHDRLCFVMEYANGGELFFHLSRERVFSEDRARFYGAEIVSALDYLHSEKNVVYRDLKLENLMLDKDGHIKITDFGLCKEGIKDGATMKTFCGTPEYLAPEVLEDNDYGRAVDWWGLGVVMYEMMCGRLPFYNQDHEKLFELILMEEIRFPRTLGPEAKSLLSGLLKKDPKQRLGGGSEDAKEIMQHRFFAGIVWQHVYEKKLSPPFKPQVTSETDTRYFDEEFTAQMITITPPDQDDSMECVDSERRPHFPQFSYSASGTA
UniProt Q8IVW4, residues 4-286: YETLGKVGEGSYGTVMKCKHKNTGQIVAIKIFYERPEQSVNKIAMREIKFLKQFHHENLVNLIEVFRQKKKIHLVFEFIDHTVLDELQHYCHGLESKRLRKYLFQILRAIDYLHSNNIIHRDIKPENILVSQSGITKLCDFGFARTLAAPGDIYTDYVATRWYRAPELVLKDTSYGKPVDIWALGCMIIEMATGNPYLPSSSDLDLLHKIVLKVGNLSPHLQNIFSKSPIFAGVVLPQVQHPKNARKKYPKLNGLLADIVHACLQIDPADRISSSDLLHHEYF

Molecular target: Myc-Akt1 (UniProt P31749)
Assay: co-IP; HA-tagged CDKL3 constructs and Myc-Akt1 or Akt1 constructs expressed exogenously; total cell lysate on α-HA-agarose or α-myc-agarose at 4°C overnight; resin washed five times with TBS-T; Western blot; reverse IP also done for the Akt1 mapping

HA-CDKL3 K (Kinase domain) (from UniProt Q8IVW4 4-286) (domain or fragment)
binding: binds
